Assay results reported in the supplement of paper PMC10331698.
± gives the standard deviation of the averaged measurements. Small differences around the control level are noise.

Assays:
Assay in all cases: level (log10 ratio to DMSO vehicle control); higher = higher biomarker level / cell amount than vehicle control
Perfluorooctanoic acid = compound: O=C(O)C(F)(F)C(F)(F)C(F)(F)C(F)(F)C(F)(F)C(F)(F)C(F)(F)F [Perfluorooctanoic acid]; conditions: 2200 nM; in DMSO
Description: (§1)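 BioMAP Diversity Plus panel of 12 human primary cell co-culture systems (3C, 4H, LPS, SAg, BT, BF4T, BE3C, CASM3C, HDF3CGF, KF3CT, MyoF, Mphg). Compounds were added 1 h before stimulation and left for 24 h (MyoF 48 h; BT 72 h for soluble read-outs or 6 d for IgG). Biomarkers were read by ELISA, cytotoxicity by SRB, PBMC viability and proliferation by Alamar Blue. Each well value was divided by the mean of 8 DMSO control wells on the same plate and log10 transformed; duplicate blinded samples were tested at 4 concentrations.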

Perfluorodecanoic acid = compound: O=C(O)C(F)(F)C(F)(F)C(F)(F)C(F)(F)C(F)(F)C(F)(F)C(F)(F)C(F)(F)C(F)(F)F [Perfluorodecanoic acid]; conditions: in DMSO
Description: as §1

[1] = compound: O=C(O)C(F)(F)C(F)(F)C(F)(F)C(F)(F)C(F)(F)C(F)(F)C(F)(F)F [Ammonium perfluorooctanoate]; conditions: 2200 nM; in DMSO
Description: as §1

[2] = compound: OCC(F)(F)OC(F)(F)C(F)(F)OC(F)(F)C(F)(F)OC(F)(F)CO [1H,1H,11H,11H-Perfluorotetraethylene glycol]; conditions: 2200 nM; in DMSO
Description: as §1

[3] = compound: O=C(O)C(F)(F)OC(F)(F)C(F)(F)OC(F)(F)F [Perfluoro-3,6-dioxaheptanoic acid]; conditions: 2200 nM; in DMSO
Description: as §1

[4] = compound: C=CC(=O)OCC(F)(F)C(F)(F)C(F)(F)C(F)(F)C(F)(F)C(F)(F)C(F)(F)C(F)F [1H,1H,9H-Perfluorononyl acrylate]; conditions: 2200 nM; in DMSO
Description: as §1

[5] = compound: CCOC(=O)CC(=O)C(F)(F)C(F)(F)F [Ethyl pentafluoropropionyl acetate]; conditions: 2200 nM; in DMSO
Description: as §1

[6] = compound: O=C(CC(=O)C(F)(F)C(F)(F)C(F)(F)F)c1cccs1 [(Perfluorobutyryl)-2-thenoylmethane]; conditions: 2200 nM; in DMSO
Description: as §1

Perfluorooctanamidine = compound: N=C(N)C(F)(F)C(F)(F)C(F)(F)C(F)(F)C(F)(F)C(F)(F)C(F)(F)F [Perfluorooctanamidine]; conditions: in DMSO
Description: as §1

[7] = compound: O=C(O)CCC(F)(C(F)(F)F)C(F)(F)F [4,4-bis(Trifluoromethyl)-4-fluoropropanoic acid]; conditions: 2200 nM; in DMSO
Description: as §1

[8] = compound: FC(F)(F)C(F)(F)C(F)(F)C(F)(F)C(F)(F)C(F)(F)C(F)(F)C(F)(F)CCS [2-(Perfluorooctyl)ethanthiol]; conditions: in DMSO
Description: as §1

Perfluorononanoic acid = compound: O=C(O)C(F)(F)C(F)(F)C(F)(F)C(F)(F)C(F)(F)C(F)(F)C(F)(F)C(F)(F)F [Perfluorononanoic acid]; conditions: 2200 nM; in DMSO
Description: as §1

[9] = compound: O=C(O)C(F)(F)OC(F)(F)C(F)(F)OC(F)(F)C(F)(F)OC(F)(F)C(F)(F)C(F)(F)C(F)(F)F [Perfluoro-3,6,9-trioxatridecanoic acid]; conditions: 2200 nM; in DMSO
Description: as §1

[10] = compound: OCC(F)(F)C(F)(F)C(F)(F)C(F)(F)C(F)(F)C(F)(F)C(F)(F)C(F)(F)CO [1H,1H,10H,10H-Perfluorodecane-1,10-diol]; conditions: 2200 nM; in DMSO
Description: as §1

Row | Test System | level (log10) (Perfluorooctanoic acid) | level (log10) (Perfluorodecanoic acid; 2200 nM) | level (log10) (Perfluorodecanoic acid; 6700 nM) | level (log10) (Perfluorodecanoic acid; 20000 nM) | level (log10) [1] | level (log10) [2] | level (log10) [3] | level (log10) [4] | level (log10) [5] | level (log10) [6] | level (log10) (Perfluorooctanamidine; 2200 nM) | level (log10) (Perfluorooctanamidine; 6700 nM) | level (log10) (Perfluorooctanamidine; 20000 nM) | level (log10) (Perfluorooctanamidine; 60000 nM) | level (log10) [7] | level (log10) ([8]; 740 nM) | level (log10) ([8]; 2200 nM) | level (log10) (Perfluorononanoic acid) | level (log10) [9] | level (log10) [10]
1 | 3C:CCL2/MCP-1 | 0.0135 ± 0.0021 | 0.0095 ± 0.029 | 0.0065 ± 0.013 | -0.004 ± 0.0028 | 0.0065 ± 0.028 | 0.008 ± 0.055 | -0.0085 ± 0.11 | 0.027 ± 0.014 | -0.0065 ± 0.018 | 0.016 ± 0.061 | 0.0245 ± 0.0092 | 0.0185 ± 0.012 | 0.0085 ± 0.011 | 0.062 | -0.002 ± 0.013 | 0.008 ± 0.085 | 0.0075 ± 0.05 | -0.045 ± 0.017 | 0.0265 ± 0.052 | 0.024 ± 0.0099
2 | CASM3C:CD142/Tissue Factor | -0.0245 ± 0.025 | 0.0145 ± 0.0078 | 0.008 ± 0.0042 | -0.0055 ± 0.012 | -0.003 ± 0.014 | -0.0215 ± 0.015 | 0.0165 ± 0.012 | 0.028 ± 0.076 | -0.041 ± 0.014 | -0.0385 ± 0.064 | 0.002 ± 0.078 | -0.022 ± 0.024 | -0.033 ± 0.0014 | 0.042 | -0.0145 ± 0.061 | -0.0675 ± 0.1 | -0.0755 ± 0.071 | -0.065 ± 0.024 | 0.022 ± 0.018 | -0.005 ± 0.041
3 | LPS:sTNF-alpha | 0.0205 ± 0.015 | -0.0255 ± 0.029 | -0.0245 ± 0.011 | -0.02 ± 0.017 | -0.008 ± 0.0085 | 0.0055 ± 0.0035 | -0.0155 ± 0.049 | 0.082 ± 0.062 | 0.006 ± 0.017 | -0.023 ± 0.027 | 0.0425 ± 0.00071 | -0.0145 ± 0.071 | -0.095 ± 0.17 | -0.08 | -0.0185 ± 0.049 | 0.0635 ± 0.029 | 0.0515 ± 0.013 | 0.013 ± 0.048 | -0.0095 ± 0.049 | -0.0725 ± 0.13
4 | lMphg:sIL-10 | 0.0195 ± 0.0035 | -0.007 ± 0.059 | -0.018 ± 0.055 | -0.036 ± 0.028 | -0.0725 ± 0.067 | -0.061 ± 0.052 | -0.004 ± 0.023 | -0.024 ± 0.072 | -0.041 ± 0.028 | 0.0165 ± 0.005 | -0.034 ± 0.013 | -0.051 ± 0.018 | -0.118 ± 0.0057 | -0.121 | -0.0885 ± 0.091 | 0.037 ± 0.057 | 0.009 ± 0.021 | 0.0005 ± 0.039 | 0.063 ± 0.0085 | -0.0115 ± 0.011
5 | BF4T:MMP-1 | 0.007 ± 0.018 | 0.017 ± 0.023 | -0.0015 ± 0.0035 | -0.201 ± 0.011 | 0.007 ± 0.016 | -0.0055 ± 0.0092 | -0.018 ± 0.03 | 0.0155 ± 0.0092 | 0.011 ± 0.041 | -0.02 ± 0.0042 | 0.009 ± 0.0071 | 0.015 ± 0.02 | 0.006 ± 0.024 | 0.092 | -0.0035 ± 0.019 | 0.0085 ± 0.019 | -0.0025 ± 0.0092 | -0.02 ± 0.028 | 0.0085 ± 0.005 | 0.0085 ± 0.018
6 | BT:sIL-2 | 0.1125 ± 0.00071 | -0.0145 ± 0.071 | 0.008 ± 0.092 | 0.118 ± 0.013 | -0.013 ± 0.11 | 0.044 ± 0.014 | 0.0125 ± 0.035 | 0.0645 ± 0.091 | -0.029 ± 0.12 | 0.0145 ± 0.043 | 0.0675 ± 0.036 | 0.0225 ± 0.057 | -0.01 ± 0.031 | -0.002 | 0.0675 ± 0.005 | 0.0075 ± 0.054 | -0.0275 ± 0.0078 | -0.032 ± 0.071 | -0.043 ± 0.0085 | -0.0025 ± 0.044
